Measured values reported in publication PMC5996148.
Some of the results follow. For some assays here: The exact form of the protein is not confirmed.

Assays:
Assay in all cases: protein microarray (ProtoArray v5.0), streptavidin-Alexa Fluor 647
Details in all cases: 3'-biotin; 20 mM Tris (pH 7.5), 5 mM MgCl2, 100 mM KCl, 0.1% Tween-20, A/T-rich and random oligonucleotide blockers; temperature not stated; high values mean tight binding
[1] = tested on: protein for MGC:16479 (human)
[2] = tested on: protein for MGC:19786 (human)
rC (human) = tested on: rC (human)
[3] = tested on: rRNA-processing protein FCF1 homolog (human)
[4] = tested on: tRNA-splicing endonuclease subunit Sen15 (human)
[5] = tested on: 14-3-3 protein sigma (human)
[6] = tested on: 26S proteasome non-ATPase regulatory subunit 7 (human)
[7] = tested on: 3-hydroxyanthranilate 3,4-dioxygenase (human)
[8] = tested on: 40S ribosomal protein SA (human)
5 (human) = tested on: 5 (human)
[9] = tested on: 60S ribosomal protein L29 (human)
[10] = tested on: A-kinase anchor protein 14 (human)
[11] = tested on: A.T hook DNA-binding motif-containing protein 1 (human)
AATF (human) = tested on: AATF (human)
ABHD4 (human) = tested on: ABHD4 (human)
ACAD9 (human) = tested on: ACAD9 (human)
ACBD6 = target: T1, ACBD6 (UniProt Q9BR61)
T1 sequence: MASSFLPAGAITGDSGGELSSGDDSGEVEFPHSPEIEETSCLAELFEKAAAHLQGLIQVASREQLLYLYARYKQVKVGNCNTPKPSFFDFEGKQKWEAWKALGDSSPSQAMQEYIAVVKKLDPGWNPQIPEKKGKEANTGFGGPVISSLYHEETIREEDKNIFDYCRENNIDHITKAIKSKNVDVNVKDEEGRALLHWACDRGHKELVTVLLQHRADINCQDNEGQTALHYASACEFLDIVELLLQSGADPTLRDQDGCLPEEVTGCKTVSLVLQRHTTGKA

ACP1 (human) = tested on: ACP1 (human)
ACPP (human) = tested on: ACPP (human)
ACSL5 (human) = tested on: ACSL5 (human)

Sequence | binding signal [1] [z-score] | binding signal [2] [z-score] | binding signal (rC (human)) [z-score] | binding signal [3] [z-score] | binding signal [4] [z-score] | binding signal [5] [z-score] | binding signal [6] [z-score] | binding signal [7] [z-score] | binding signal [8] [z-score] | binding signal (5 (human)) [z-score] | binding signal [9] [z-score] | binding signal [10] [z-score] | binding signal [11] [z-score] | binding signal (AATF (human)) [z-score] | binding signal (ABHD4 (human)) [z-score] | binding signal (ACAD9 (human)) [z-score] | binding signal (ACBD6) [z-score] | binding signal (ACP1 (human)) [z-score] | binding signal (ACPP (human)) [z-score] | binding signal (ACSL5 (human)) [z-score]
GGTGACAGGGGTATGGGGAGGGG [G4-2 biotinylated (Ct1)] | -0.383 | -0.402 | -0.372 | 4.28 | -0.359 | – | – | – | – | – | – | – | – | – | – | – | – | – | – | –
GGGGACAGGGGTATGGGGAGGGG [G4-3 biotinylated (CtG)] | – | – | – | – | – | -0.341 | -0.348 | -0.341 | -0.337 | -0.334 | 4.54 | -0.328 | -0.327 | -0.35 | -0.318 | -0.315 | -0.326 | -0.333 | -0.322 | -0.315
